Whole data set: some 33,000 sequences, median “E-score (-0.5 to 0.5)” near -0.0034, cut for the highest 2% near 0.25. The list shows a part of the results.
What follows are sequences tested against T1, Yap3 (UniProt P38749) (assay: PBM E-score (8-mer binding enrichment) (E-score (-0.5 to 0.5)); higher = stronger / more preferred TF binding). Conditions: protein concentration: 100 nM; construct: GST-full length.
T1 sequence: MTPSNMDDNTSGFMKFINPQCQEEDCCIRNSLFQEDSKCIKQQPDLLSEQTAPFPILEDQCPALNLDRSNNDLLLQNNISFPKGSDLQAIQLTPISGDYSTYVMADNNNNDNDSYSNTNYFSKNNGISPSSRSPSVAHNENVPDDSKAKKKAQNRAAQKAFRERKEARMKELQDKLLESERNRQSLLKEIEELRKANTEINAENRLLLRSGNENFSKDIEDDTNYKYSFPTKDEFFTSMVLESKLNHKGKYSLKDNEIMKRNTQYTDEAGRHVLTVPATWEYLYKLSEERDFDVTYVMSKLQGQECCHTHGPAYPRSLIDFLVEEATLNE
Procedure, shortened: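 Masliner-normalised scans of fluorescent anti-GST signal were the basis for scoring. That signal came from GST-tagged yeast transcription factors applied at about 100-200 nM to double-stranded universal all-10-mer Agilent arrays on fresh or once-stripped slides. Each ungapped eight-base word, pooled with its reverse complement, received an E-score from the Universal PBM Analysis Suite.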

Row | Sequence | PBM E-score
1 | CCGCAAGG | -0.00931
2 | AGTCTGAC | -0.126
3 | GATGGCAC | -0.162
4 | AAAACTGA | 0.0883
5 | ATCCTTCG | -0.0718
6 | CACGATTA | 0.166
7 | CGCGACCA | 0.0731
8 | GGTGGGTA | -0.0755
9 | CTAATCGC | 0.0898
10 | CGAGAAAA | -0.0207
11 | CACAAAAG | 0.0916
12 | CAGGGCTC | -0.322
13 | CAGCCACC | -0.241
14 | GTGAGGTA | 0.0278
15 | CTCAGACC | -0.0277
16 | AGTAATAT | 0.295
17 | ATTTAATA | 0.302
18 | AAATGGAA | 0.0788
19 | GCGAGGCA | 0.129
20 | TATGAACA | 0.154
21 | AAGACGCT | -0.134
22 | TTATCAAA | 0.283
23 | AAGAAGCA | 0.119
24 | GCGCTACC | -0.207
25 | CCTCTGCA | -0.156

Row | Sequence | PBM E-score
26 | ACTAGCCG | -0.105
27 | AGGCGGTG | -0.124
28 | CAGCCCTC | -0.251
29 | TCATGCCA | 0.107
30 | CTATGGCA | -0.0295
31 | TCGTAAAA | 0.186
32 | CGCTGAGC | -0.0626
33 | CCTACGAC | -0.00598
34 | ACACGGCC | -0.118
35 | CCAACCAA | -0.105
36 | CAAAAGTA | 0.124
37 | AAGTCTCG | -0.256
38 | CCGGAGGA | -0.32
39 | ATGGGCTA | 0.0365
40 | ACTAACTA | 0.0625
41 | ACCGTAAG | 0.134
42 | CCGCGGGA | 0.0728
43 | GACCGAAA | 0.0716
44 | AGTTGGGC | 0.0554
45 | GGTTTTTA | 0.0665
46 | ATGGCACA | 0.0343
47 | CCGTTGAG | -0.143
48 | CTCTCCAA | -0.0585
49 | TCTTTTAA | 0.0931
50 | GCTTATGA | 0.00919

Row | Sequence | PBM E-score
51 | GGCCATGA | -0.0375
52 | GTTGTACA | 0.148
53 | GCCGTTGA | -0.014
54 | AACATTGG | -0.0847
55 | GCTCGAGA | -0.133
56 | ACGACGCT | -0.137
57 | ACAATAAA | 0.106
58 | CCCGTTAA | -0.148
59 | ATAGCTAC | 0.0338
60 | CGACGTCC | -0.0908
61 | CAGGGTTA | -0.103
62 | ACTGTCAC | -0.0116
63 | AGACATCA | -0.00878
64 | AGGTGTTA | 0.0571
65 | CGGGGATA | -0.0572
66 | CCACATCG | -0.0241
67 | AAGTTGTA | 0.196
68 | TCTCTGCA | -0.152
69 | TCTGAAGA | -0.167
70 | CGATTATC | 0.0664
71 | AAACAACA | 0.222
72 | ATAATTTG | 0.294
73 | ACGCCACC | -0.186
74 | GAGAACGA | 0.00944
75 | CGGGGTCC | -0.179

Row | Sequence | PBM E-score
76 | GCTCGATA | -0.0478
77 | AGATCTCA | -0.0611
78 | CGCATCCA | -0.0319
79 | GTAGTGAC | 0.0382
80 | GGCTGTAA | -0.131
81 | AGGCATTA | -0.117
82 | CATCGACG | -0.111
83 | AAGGGTCG | -0.14
84 | AAGGCTTA | 0.0457
85 | GTAGTATA | 0.233
86 | AAATGGCA | 0.0241
87 | CAAAGGGC | -0.168
88 | ATGGGACG | -0.199
89 | CATGCTCG | -0.0852
90 | AAGGCCGT | -0.104
91 | CCGCAGCA | -0.0274
92 | ATTACCTG | 0.142
93 | CTTTTAAA | 0.131
94 | ACGCTTGA | -0.0386
95 | AGGCGCCG | -0.0458
96 | AGTGTTAC | 0.154
97 | ACCGCATG | -0.0848
98 | CGAAGGAA | 0.0662
99 | AGGCTCGC | -0.224
100 | AACGTAAT | 0.353

Row | Sequence | PBM E-score
101 | ATCGGAGC | -0.157
102 | ATAAGGGA | 0.114
103 | ATGTTAAT | 0.18
104 | GAGGGACA | 0.00636
105 | AGAGTACG | -0.12
106 | TCCGTTCA | -0.114
107 | ATTCTAAA | 0.0761
108 | CCATTGAC | -0.0622
109 | AGATTAAA | 0.197
110 | CCAGCCGC | -0.119
111 | CCCAGACA | -0.175
112 | CCACGAGA | -0.142
113 | AGTCCTCC | -0.277
114 | GAGGACCA | -0.051
115 | TATTTGGA | -0.0865
116 | GGCTATGA | -0.0379
117 | CATAGGAA | -0.0287
118 | GCACTGAC | 0.0258
119 | ACACAAAC | 0.0974
120 | GCCCTGGA | -0.279
121 | CCCGATGC | -0.195
122 | AGAACCCA | -0.0409
123 | ACACCAGT | -0.139
124 | CTCCCTCA | -0.122
125 | AACCCTTC | 0.0674

An excerpt of these results, with tabs:
Row	Sequence	PBM E-score
105	AGAGTACG	-0.12
108	CCATTGAC	-0.0622
111	CCCAGACA	-0.175
120	GCCCTGGA	-0.279
124	CTCCCTCA	-0.122

From no. 119 to 122, as listed above:
Row | Sequence | PBM E-score
119 | ACACAAAC | 0.0974
120 | GCCCTGGA | -0.279
121 | CCCGATGC | -0.195
122 | AGAACCCA | -0.0409

Following part.

Row | Sequence | PBM E-score
126 | ATCAATAG | 0.0702
127 | AATTCGTC | 0.185
128 | CTAGAGTA | -0.0831
129 | ACTATCCA | 0.0137
130 | AAATGGGG | -0.171
131 | CCACGTTA | 0.169
132 | ATAGGACA | -0.0795
133 | CGCGCAAC | -0.0558
134 | CGGCGGAA | -0.0846
135 | AATCTAAT | 0.118
136 | GTGTGTTA | 0.259
137 | ATCCGTGC | 0.145
138 | ATGGACCA | 0.0714
139 | GCCGTGCC | -0.168
140 | TCAGTACA | 0.136
141 | AATACCGT | 0.143
142 | CTCTGACA | -0.211
143 | AGCACCAC | -0.291
144 | CTACGAAA | 0.033
145 | CATAAAGA | 0.154
146 | AACTGCAA | 0.00467
147 | ATGTTCCC | -0.0729
148 | CACCGTGC | 0.1
149 | CCGCGGAA | 0.042
150 | CCCGGACC | -0.297

Row | Sequence | PBM E-score
151 | ATAGGCGC | 0.0168
152 | CTTGAAGC | 0.00623
153 | GAACTCAC | -0.00644
154 | AGTCTTCC | -0.0245
155 | GGTGAGAC | -0.0521
156 | GAATTTGC | 0.0376
157 | CGGATGCA | -0.0966
158 | ACCCCTAG | -0.134
159 | ACGTATAA | 0.134
160 | ATTCCAGC | -0.141
161 | CCCCGTCA | -0.169
162 | CGACAATC | -0.0622
163 | AGGAAAGC | -0.0454
164 | ACTAAAGT | 0.066
165 | GTTATTAA | 0.262
166 | AACTGCAG | -0.019
167 | CCAAACCA | 0.0197
168 | GGCGCACC | -0.279
169 | AGACGTAT | 0.0232
170 | AGTGATCA | -0.0243
171 | GCCCCGGA | -0.205
172 | GCAACCCA | -0.11
173 | ACACGCAA | 0.145
174 | TAGGATCA | 0.0339
175 | AACGCGAG | 0.126

Row | Sequence | PBM E-score
176 | ATGTCAAA | 0.152
177 | AAACACTT | 0.081
178 | GACACTTA | -0.0329
179 | GCTGCAGA | 0.0952
180 | AGGCGGGC | -0.268
181 | ACATGTCA | 0.036
182 | AATTAGAA | 0.0871
183 | AGTAGTGG | 0.0946
184 | CGGGTCTA | -0.122
185 | ACTGACCC | -0.288
186 | AGAACTCA | 0.15
187 | ATAAAGGC | 0.0448
188 | ACCCGTAC | 0.0141
189 | GGCAACGA | 0.0882
190 | CGAAGGGA | -0.0657
191 | ACGATACG | -0.143
192 | CGGTCTCC | -0.203
193 | CTAGTCCA | -0.0602
194 | CCCGACCG | -0.3
195 | GAATCGGA | 0.141
196 | AGTTTGAT | 0.196
197 | CAGACACC | -0.047
198 | CAAAGTGA | 0.0818
199 | CAACCCCA | 0.061
200 | CAACTTAC | 0.0185

Row | Sequence | PBM E-score
201 | AGACACCC | -0.165
202 | AATCAAGC | -0.0795
203 | CATCAGGA | -0.0225
204 | AGCCGCTA | -0.0701
205 | AGGTGTCG | -0.057
206 | CTGGCCCA | -0.248
207 | ACAACAAC | 0.173
208 | ACTCAAAT | 0.0819
209 | GACTTAAC | -0.152
210 | ACGCTGTG | 0.00262
211 | ATATGATA | 0.264
212 | GGGAGGTA | -0.0852
213 | TCAGAGCA | -0.116
214 | GCACGGCA | 0.0203
215 | AAATTCCA | 0.269
216 | ATAATATA | 0.307
217 | ATCACGTG | 0.0436
218 | GAGTGCGC | -0.00802
219 | CGCTCCAG | -0.276
